Our source for the binding values is PMC8546593.

Sequences of proteins named here, by UniProt entry; tags and fusion partners are left off. Residues count along the entry.
UniProt O88907: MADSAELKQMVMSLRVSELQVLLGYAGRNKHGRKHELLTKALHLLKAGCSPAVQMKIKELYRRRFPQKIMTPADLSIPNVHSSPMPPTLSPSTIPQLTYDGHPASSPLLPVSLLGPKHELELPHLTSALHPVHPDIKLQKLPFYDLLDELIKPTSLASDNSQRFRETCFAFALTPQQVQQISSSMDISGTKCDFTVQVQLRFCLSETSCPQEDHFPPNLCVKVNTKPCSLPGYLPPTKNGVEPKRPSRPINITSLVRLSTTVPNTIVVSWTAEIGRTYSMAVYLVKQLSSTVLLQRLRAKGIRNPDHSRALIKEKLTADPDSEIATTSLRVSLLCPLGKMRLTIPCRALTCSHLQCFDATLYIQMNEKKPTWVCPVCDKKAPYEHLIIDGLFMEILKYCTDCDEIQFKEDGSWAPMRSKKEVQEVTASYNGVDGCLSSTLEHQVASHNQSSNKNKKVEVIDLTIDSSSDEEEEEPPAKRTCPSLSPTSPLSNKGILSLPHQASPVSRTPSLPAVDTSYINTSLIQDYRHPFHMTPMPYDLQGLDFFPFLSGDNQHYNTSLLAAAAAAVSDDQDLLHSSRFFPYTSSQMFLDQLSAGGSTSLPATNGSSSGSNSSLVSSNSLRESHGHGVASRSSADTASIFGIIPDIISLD
UniProt P25799, residues 1-431: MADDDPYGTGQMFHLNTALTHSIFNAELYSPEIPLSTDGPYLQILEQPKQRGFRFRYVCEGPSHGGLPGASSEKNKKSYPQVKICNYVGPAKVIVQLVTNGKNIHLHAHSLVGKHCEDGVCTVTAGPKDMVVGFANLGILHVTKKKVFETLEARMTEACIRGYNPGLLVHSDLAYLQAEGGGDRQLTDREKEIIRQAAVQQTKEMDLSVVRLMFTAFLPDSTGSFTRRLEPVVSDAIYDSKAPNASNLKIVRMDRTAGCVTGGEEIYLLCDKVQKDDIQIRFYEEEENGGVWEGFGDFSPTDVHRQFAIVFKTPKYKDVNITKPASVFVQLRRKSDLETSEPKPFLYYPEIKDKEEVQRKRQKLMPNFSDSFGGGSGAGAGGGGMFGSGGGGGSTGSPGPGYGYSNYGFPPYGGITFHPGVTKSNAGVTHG
UniProt Q60636: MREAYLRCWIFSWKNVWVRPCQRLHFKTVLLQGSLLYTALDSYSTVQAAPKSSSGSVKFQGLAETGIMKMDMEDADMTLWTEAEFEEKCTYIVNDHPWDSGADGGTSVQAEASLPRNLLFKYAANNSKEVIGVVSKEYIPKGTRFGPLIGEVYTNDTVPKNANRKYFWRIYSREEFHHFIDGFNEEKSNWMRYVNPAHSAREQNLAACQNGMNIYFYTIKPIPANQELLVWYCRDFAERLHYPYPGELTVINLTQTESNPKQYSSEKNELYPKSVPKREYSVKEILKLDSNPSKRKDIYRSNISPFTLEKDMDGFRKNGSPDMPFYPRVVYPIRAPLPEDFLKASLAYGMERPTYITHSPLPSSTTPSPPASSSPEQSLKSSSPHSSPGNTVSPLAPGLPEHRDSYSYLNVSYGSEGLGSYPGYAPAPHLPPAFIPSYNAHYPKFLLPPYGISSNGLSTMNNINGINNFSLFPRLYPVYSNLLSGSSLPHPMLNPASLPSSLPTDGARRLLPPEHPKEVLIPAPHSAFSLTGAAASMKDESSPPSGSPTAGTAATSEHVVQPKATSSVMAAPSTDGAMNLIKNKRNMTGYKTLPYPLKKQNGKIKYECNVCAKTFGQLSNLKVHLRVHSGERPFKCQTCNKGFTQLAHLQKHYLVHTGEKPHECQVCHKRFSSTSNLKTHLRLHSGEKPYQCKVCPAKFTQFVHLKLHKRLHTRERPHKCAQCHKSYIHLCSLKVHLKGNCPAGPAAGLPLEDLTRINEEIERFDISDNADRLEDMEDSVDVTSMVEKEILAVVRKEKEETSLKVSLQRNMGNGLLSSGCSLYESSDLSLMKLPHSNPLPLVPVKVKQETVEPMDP

These are yes or no findings as the source states them, for the method shown. Binding seen in cells or lysates may run through a third protein. Some binding calls cover weakened binding; strength is not graded here.

Test [1] addresses protein inhibitor of activated Stat1 (Pias1) (mouse (endogenous in IEC4.1)) (UniProt O88907). Description: co-IP; endogenous proteins; nuclei extracts of IEC4.1 cells stimulated with IFN-γ; whole-cell extracts as input control.
The target of test [2] is NF-κB p50 subunit (mouse (endogenous in IEC4.1)) (UniProt P25799). Nature of the test: co-IP; endogenous proteins; IEC4.1 cells lysed in 20 mM Tris-HCl pH 8.0, 150 mM NaCl, 1% NP-40; 500 μg lysate protein with primary antibody at 4°C overnight, protein A-Sepharose, Western blot; cells infected with C. parvum or stimulated with IFN-γ (2 h), some treated with control, XR_001779380 or Prdm1 siRNA or Prdm1-/-. (In western blotting, separated proteins are transferred to a membrane and probed.)

Consider “PR/SET domain 1 (Prdm1) (from UniProt Q60636 1-856)”, for which the binding entry in test [1] is “binds”.

B1: E74-like factor epithelial-specific transcription factor 3 (Elf3) (protein, UniProt Q3UPW2 1-391)
chain: MAATCEISNVFSNYFNAMYSSEDPTLAPAPPTTFGTEDLVLTLNNQQMTLEGPGPQTRSQRDRTDPLAVLHLAEKASWTSERPQFWSKTQVLEWISYQVEKNKYDASSIDFSRCDMDGATLCSCALEELRLVFGPLGDQLHAQLRDLTSNSSDELSWIIELLEKDGMSFQESLGDSGPFDQGSPFAQELLDDGRQASPYYCSTYGPGAPSPGSSDVSTARTATPQSSHASDSGGSDVDLDLTESKVFPRDGFPDYKKGEPKHGKRKRGRPRKLSKEYWDCLEGKKSKHAPRGTHLWEFIRDILIHPELNEGLMKWENRHEGVFKFLRSEAVAQLWGQKKKNSNMTYEKLSRAMRYYYKREILERVDGRRLVYKFGKNSSGWKEEEVGESRN
Consider B1, for which the binding result in test [2] is given as “binds”.
